# Laboratory results published in patent US20060235215A1.
# Results are given in words; binding and its absence hold for the method and conditions named. Some results given as binding are weak or reduced against the parent protein; the word gives no strength.
# T1: O. sativa 14-3-3 Protein Homolog GF14-c, bait fragment aa 1-150 (Oryza sativa) (UniProt Q6ZKC0)
# T1 sequence: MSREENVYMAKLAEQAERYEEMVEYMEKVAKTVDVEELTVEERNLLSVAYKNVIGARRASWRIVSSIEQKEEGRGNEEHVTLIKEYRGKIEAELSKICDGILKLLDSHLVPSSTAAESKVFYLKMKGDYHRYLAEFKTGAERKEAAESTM
# T2: Elicitor responsive protein, bait fragment aa 23-120 (Oryza sativa) (UniProt Q0JBH9)
# T2 sequence: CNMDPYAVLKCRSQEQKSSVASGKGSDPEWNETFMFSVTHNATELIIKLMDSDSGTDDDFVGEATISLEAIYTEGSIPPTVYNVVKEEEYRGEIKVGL
# T3: O. sativa Defender Against Apoptotic Death 1, bait clone aa 30-115 (Oryza sativa) (UniProt A2XSY1)
# T3 sequence: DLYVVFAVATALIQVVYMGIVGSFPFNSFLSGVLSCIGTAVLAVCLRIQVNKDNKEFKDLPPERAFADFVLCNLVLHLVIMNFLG
# Assays:
# Test in all cases: yeast two-hybrid
# [1] = molecular target: T1, O. sativa 14-3-3 Protein Homolog GF14-c, bait fragment aa 1-150 (Oryza sativa)
# [2] = molecular target: T2, Elicitor responsive protein, bait fragment aa 23-120 (Oryza sativa)
# [3] = molecular target: T3, O. sativa Defender Against Apoptotic Death 1, bait clone aa 30-115 (Oryza sativa)
binder,measurement,setting,value
"Novel Protein PN23022, Fragment, similar to H. vulgare Plasma Membrane H+-ATPase, prey clone aa 149-285 (protein) KKADIGIAVADAIDAARSASDIVLTEPGLSVIISAVLTSRCIFQRMKNYTIYAVSITIRIVLGFLLIALIWKYDFSPFMVLIIAILNDGTIMTISKDRVKPSPLPDSWKLKEIFATGIVLGSYLALMTVIFFWAMHK",binding,[1],binds
"Xanthine dehydrogenase-like PN29997, prey clone printed 737/918 (protein) KAGSFHPNSKRCLVKGNVEQCFLSGACDRIIEGKVQVGGQEHFYMEPQSTLVWPVDSGNEIHMISSTQAPQKHQKYVANVLGLPQSRVVCKTKRIGGGFGGKETRSAIFAAAASVAAYCLRQPVKLVLDRDIDMMTTGQRHSFLGKYKVGFTDDGKILALDLDVYNNGGHSHDLSLPVLERA",binding,[2],binds
"Novel Protein PN23022, Fragment, similar to H. vulgare Plasma Membrane H+-ATPase, prey clone aa 37-371 (protein) LFDPPRHDSAETIRKALHLGVNVKMITGDQLAIGKETGRRLGMGTNMYPSSALLGQNKDASLEALPVDELIEKADGFAGVFPEHKYEIVKRLQEKKHIVGMTGDGVNDAPALKKADIGIAVADAIDAARSASDIVLTEPGLSVIISAVLTSRCIFQRMKNYTIYAVSITIRIVLGFLLIALIWKYDFSPFMVLIIAILNDGTIMTISKDRVKPSPLPDSWKLKEIFATGIVLGSYLALMTVIFFWAMHKTDFFTDKFGVRSIRNSEHEMMSALYLQVSIVSQALIFVTRSRSWSFIERPGLLLVTAFMLAQLVATFLAVYANWGFARIKGIGWGW",binding,[3],binds
